Results reported in US20170211073A1, “ANTISENSE ANTINEOPLASTIC AGENT” (priority 2014, published 2017).
Some of these results come from one statement about several compounds together. [AmNA] = amido-bridged nucleic acid (BNA) sugar; d = 2'-deoxy (DNA)

System: YB-1
Test: Screening of antisense oligo-nucleic acids by YB-1 expression-inhibitory ability in cancer cells (Lipofectamine RNAiMax)
Format: cell-based, human
Details: concentration of 5 to 20 nM; various cancer cells; data not shown

Substance: TCTcctgcaccCTGg (TCTCCTGCACCCTGG; chemistry not fully specified) [ASO#10]
- knockdown efficiencies (YB-1 expression-inhibitory ability): ≥ 70%

Substance: ASO#1: candidate YB-1 antisense oligo-nucleic acid found in screening; sequence presumably SEQ ID NO: 1 (antisense AGGTGGGAACCTTCG; sugars from the 5' end [AmNA]3 d8 [AmNA]3 d1, backbone and methylation of C not given here)
- knockdown efficiencies (YB-1 expression-inhibitory ability): ≥ 70%
